{"sequences": {"note": "Sequences of proteins named here, by UniProt entry; tags and fusion partners are left off. Residues count along the entry.", "UniProt O76061, residues 25-302": "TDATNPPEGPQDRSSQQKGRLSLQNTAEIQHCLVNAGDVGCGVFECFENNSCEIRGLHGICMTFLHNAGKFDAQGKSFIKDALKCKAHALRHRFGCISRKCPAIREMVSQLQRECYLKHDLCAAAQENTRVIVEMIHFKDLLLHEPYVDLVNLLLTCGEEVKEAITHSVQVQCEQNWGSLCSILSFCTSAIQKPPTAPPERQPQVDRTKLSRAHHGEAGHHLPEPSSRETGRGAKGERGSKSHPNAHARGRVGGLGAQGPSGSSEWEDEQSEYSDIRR"}, "source": "paper PMC11032339", "molecular_target": "T1, soluble full-length recombinant ADAMTS13 (UniProt Q76LX8)", "T1 sequence": "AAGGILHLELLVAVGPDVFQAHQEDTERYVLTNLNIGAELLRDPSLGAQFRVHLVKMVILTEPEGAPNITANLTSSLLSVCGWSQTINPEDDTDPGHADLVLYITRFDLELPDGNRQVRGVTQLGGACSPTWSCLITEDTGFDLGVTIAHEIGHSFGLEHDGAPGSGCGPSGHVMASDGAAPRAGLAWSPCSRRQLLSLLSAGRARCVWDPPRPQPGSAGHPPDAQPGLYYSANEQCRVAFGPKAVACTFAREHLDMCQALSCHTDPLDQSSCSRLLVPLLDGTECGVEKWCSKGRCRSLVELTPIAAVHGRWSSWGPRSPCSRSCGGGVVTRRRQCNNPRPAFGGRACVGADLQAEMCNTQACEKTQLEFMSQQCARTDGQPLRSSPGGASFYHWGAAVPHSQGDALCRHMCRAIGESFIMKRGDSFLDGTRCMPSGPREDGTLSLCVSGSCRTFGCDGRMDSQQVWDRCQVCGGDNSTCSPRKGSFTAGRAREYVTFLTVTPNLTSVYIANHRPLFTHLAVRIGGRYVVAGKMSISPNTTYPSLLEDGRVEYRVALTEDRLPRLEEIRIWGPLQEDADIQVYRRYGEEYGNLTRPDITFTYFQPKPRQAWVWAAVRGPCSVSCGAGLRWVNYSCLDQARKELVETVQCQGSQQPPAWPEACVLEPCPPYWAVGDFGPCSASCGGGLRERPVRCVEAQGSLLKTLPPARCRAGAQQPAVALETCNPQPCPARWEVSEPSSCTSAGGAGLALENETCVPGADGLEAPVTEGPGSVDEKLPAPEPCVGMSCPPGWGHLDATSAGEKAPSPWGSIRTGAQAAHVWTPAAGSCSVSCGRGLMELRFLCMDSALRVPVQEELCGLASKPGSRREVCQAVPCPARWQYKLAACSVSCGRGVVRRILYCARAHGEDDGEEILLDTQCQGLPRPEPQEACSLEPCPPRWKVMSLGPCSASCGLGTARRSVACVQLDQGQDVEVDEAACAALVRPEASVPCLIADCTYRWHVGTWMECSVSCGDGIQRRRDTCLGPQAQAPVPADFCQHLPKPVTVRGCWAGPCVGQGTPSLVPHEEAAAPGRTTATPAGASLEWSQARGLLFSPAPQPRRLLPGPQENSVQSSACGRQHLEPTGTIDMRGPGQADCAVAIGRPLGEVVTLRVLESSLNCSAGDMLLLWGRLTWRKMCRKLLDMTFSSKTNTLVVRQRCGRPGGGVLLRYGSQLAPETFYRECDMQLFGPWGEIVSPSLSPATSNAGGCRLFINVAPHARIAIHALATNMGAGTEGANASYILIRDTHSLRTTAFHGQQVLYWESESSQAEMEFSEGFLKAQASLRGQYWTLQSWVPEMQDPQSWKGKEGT", "test": "SPR; Biacore T200; ADAMTS13, MDTCS (or fibrinogen) immobilised on CM5 by amine coupling (500-1000 RU); analytes 0-7 µM (or 0-3.5 µM) with 5 mM AEBSF and 10 µM VFKck; 20 mM HEPES-NaOH, 150 mM NaCl, pH 7.4, 0.01% Tween-20, 10 mM CaCl2, 10 µM ZnCl2; 20 µl/min, 25 °C; equilibrium responses fitted to a one-site binding model; both purified", "note": "No constants are given. Whether binding was seen depends on the method and setting."}
{"substance": "Stanniocalcin-2 (recombinant) (from UniProt O76061 25-302)", "values": [{"measurement": "binding", "value": "no binding (tested: 1.3 µM)"}]}
